Test results published in PMC5415763.
These are yes or no findings as the source states them, for the method shown. In cells and extracts the contact can be indirect. Some binding calls cover weakened binding; strength is not graded here.

Amino acid sequences for entries named in this document (tags omitted).
UniProt P84022: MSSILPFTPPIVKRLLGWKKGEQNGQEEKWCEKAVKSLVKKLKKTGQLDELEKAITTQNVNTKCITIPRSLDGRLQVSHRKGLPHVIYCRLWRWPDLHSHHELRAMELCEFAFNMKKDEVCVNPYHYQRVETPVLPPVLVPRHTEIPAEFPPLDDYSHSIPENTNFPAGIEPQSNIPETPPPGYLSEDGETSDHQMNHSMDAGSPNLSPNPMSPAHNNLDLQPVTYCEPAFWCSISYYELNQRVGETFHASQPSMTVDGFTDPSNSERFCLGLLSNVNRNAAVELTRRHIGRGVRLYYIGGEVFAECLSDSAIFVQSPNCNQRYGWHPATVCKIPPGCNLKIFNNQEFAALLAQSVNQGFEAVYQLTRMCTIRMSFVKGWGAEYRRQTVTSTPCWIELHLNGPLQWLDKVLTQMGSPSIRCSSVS

T1: Sip1 (Smad-interacting protein 1) (human) (UniProt O60315)
T1 sequence: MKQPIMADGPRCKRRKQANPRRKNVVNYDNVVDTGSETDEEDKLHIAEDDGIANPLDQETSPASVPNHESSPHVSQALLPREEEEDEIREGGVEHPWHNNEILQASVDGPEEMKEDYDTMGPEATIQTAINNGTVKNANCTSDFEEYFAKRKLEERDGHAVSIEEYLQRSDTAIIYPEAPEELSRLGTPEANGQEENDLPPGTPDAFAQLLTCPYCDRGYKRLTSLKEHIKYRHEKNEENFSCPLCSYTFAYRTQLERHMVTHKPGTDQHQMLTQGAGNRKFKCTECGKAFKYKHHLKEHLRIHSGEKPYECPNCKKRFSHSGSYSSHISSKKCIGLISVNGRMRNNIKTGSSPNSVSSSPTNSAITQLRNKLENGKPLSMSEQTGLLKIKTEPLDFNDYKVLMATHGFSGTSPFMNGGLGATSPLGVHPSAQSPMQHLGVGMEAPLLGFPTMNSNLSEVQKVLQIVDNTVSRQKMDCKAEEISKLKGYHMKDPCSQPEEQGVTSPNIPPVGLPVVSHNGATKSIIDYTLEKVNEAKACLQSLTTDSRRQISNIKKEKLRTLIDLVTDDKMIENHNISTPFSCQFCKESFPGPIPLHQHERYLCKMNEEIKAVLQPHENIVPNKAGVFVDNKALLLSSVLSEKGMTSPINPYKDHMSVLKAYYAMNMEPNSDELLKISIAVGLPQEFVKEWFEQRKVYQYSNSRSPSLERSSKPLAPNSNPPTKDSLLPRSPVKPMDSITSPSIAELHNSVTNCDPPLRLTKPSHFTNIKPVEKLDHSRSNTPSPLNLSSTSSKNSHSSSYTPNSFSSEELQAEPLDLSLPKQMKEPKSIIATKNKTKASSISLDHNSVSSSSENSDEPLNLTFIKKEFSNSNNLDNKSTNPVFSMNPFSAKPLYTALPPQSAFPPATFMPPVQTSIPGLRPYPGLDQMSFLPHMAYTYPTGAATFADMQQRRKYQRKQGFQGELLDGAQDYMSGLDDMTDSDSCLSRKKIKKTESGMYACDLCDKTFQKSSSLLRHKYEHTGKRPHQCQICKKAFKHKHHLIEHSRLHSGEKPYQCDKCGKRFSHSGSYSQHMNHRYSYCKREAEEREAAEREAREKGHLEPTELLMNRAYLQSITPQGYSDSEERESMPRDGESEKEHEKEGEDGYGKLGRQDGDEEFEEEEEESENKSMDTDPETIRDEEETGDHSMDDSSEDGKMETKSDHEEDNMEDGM


Legend:
Experiment in all cases: co-IP; coimmunoprecipitation assay; cells, precipitating antibodies and conditions not stated
[1] = biological target: Smad2 (human (endogenous in human CRC cell lines)) (UniProt Q15796)
[2] = biological target: Smad3 (human (endogenous in human CRC cell lines)) (UniProt P84022)
[3] = biological target: T1, Sip1 (Smad-interacting protein 1) (human)
[4] = biological target: Smad3 (human (endogenous in human CRC cell lines)), P84022; conditions: remark: other sources report otherwise

binding [1] | binding [2] | binding [3] | binding [4] | Binder
binds | binds | – | – | Sip1 (Smad-interacting protein 1) (protein, UniProt O60315 1-1214) MKQPIMADGPRCKRRKQANPRRKNVVNYDNVVDTGSETDEEDKLHIAEDDGIANPLDQETSPASVPNHESSPHVSQALLPREEEEDEIREGGVEHPWHNNEILQASVDGPEEMKEDYDTMGPEATIQTAINNGTVKNANCTSDFEEYFAKRKLEERDGHAVSIEEYLQRSDTAIIYPEAPEELSRLGTPEANGQEENDLPPGTPDAFAQLLTCPYCDRGYKRLTSLKEHIKYRHEKNEENFSCPLCSYTFAYRTQLERHMVTHKPGTDQHQMLTQGAGNRKFKCTECGKAFKYKHHLKEHLRIHSGEKPYECPNCKKRFSHSGSYSSHISSKKCIGLISVNGRMRNNIKTGSSPNSVSSSPTNSAITQLRNKLENGKPLSMSEQTGLLKIKTEPLDFNDYKVLMATHGFSGTSPFMNGGLGATSPLGVHPSAQSPMQHLGVGMEAPLLGFPTMNSNLSEVQKVLQIVDNTVSRQKMDCKAEEISKLKGYHMKDPCSQPEEQGVTSPNIPPVGLPVVSHNGATKSIIDYTLEKVNEAKACLQSLTTDSRRQISNIKKEKLRTLIDLVTDDKMIENHNISTPFSCQFCKESFPGPIPLHQHERYLCKMNEEIKAVLQPHENIVPNKAGVFVDNKALLLSSVLSEKGMTSPINPYKDHMSVLKAYYAMNMEPNSDELLKISIAVGLPQEFVKEWFEQRKVYQYSNSRSPSLERSSKPLAPNSNPPTKDSLLPRSPVKPMDSITSPSIAELHNSVTNCDPPLRLTKPSHFTNIKPVEKLDHSRSNTPSPLNLSSTSSKNSHSSSYTPNSFSSEELQAEPLDLSLPKQMKEPKSIIATKNKTKASSISLDHNSVSSSSENSDEPLNLTFIKKEFSNSNNLDNKSTNPVFSMNPFSAKPLYTALPPQSAFPPATFMPPVQTSIPGLRPYPGLDQMSFLPHMAYTYPTGAATFADMQQRRKYQRKQGFQGELLDGAQDYMSGLDDMTDSDSCLSRKKIKKTESGMYACDLCDKTFQKSSSLLRHKYEHTGKRPHQCQICKKAFKHKHHLIEHSRLHSGEKPYQCDKCGKRFSHSGSYSQHMNHRYSYCKREAEEREAAEREAREKGHLEPTELLMNRAYLQSITPQGYSDSEERESMPRDGESEKEHEKEGEDGYGKLGRQDGDEEFEEEEEESENKSMDTDPETIRDEEETGDHSMDDSSEDGKMETKSDHEEDNMEDGM
binds | binds | binds | – | Response gene to complement 32 (RGC32) (protein, UniProt Q9H4X1 1-137) MKPPAAQGSPAAAAAAAPALDSAAAEDLSDALCEFDAVLADFASPFHERHFHYEEHLERMKRRSSASVSDSSGFSDSESADSLYRNSFSFSDEKLNSPTDSTPALLSATVTPQKAKLGDTKELEAFIADLDKTLASM
– | – | – | binds | Smad2, Q15796 1-467 (protein) MSSILPFTPPVVKRLLGWKKSAGGSGGAGGGEQNGQEEKWCEKAVKSLVKKLKKTGRLDELEKAITTQNCNTKCVTIPSTCSEIWGLSTPNTIDQWDTTGLYSFSEQTRSLDGRLQVSHRKGLPHVIYCRLWRWPDLHSHHELKAIENCEYAFNLKKDEVCVNPYHYQRVETPVLPPVLVPRHTEILTELPPLDDYTHSIPENTNFPAGIEPQSNYIPETPPPGYISEDGETSDQQLNQSMDTGSPAELSPTTLSPVNHSLDLQPVTYSEPAFWCSIAYYELNQRVGETFHASQPSLTVDGFTDPSNSERFCLGLLSNVNRNATVEMTRRHIGRGVRLYYIGGEVFAECLSDSAIFVQSPNCNQRYGWHPATVCKIPPGCNLKIFNNQEFAALLAQSVNQGFEAVYQLTRMCTIRMSFVKGWGAEYRRQTVTSTPCWIELHLNGPLQWLDKVLTQMGSPSVRCSSMS
